Key:
[1] = general procedure: Fmoc solid-phase peptide synthesis
[2] = general procedure: Fmoc solid-phase peptide synthesis; 2-Chlorotrityl chloride resin; settings: whole synthesis, TFA salt

Thr-Lys-Pro-Arg-Gly-Tyr-PC
difficulty met ([1]; conjugation step, TFA salt): this synthetic approach results in very low yield | crude purity (method not given) ([1]; whole synthesis, TFA salt): 88% | isolated yield ([1]; whole synthesis, from compound 10, TFA salt): 51% from 10% | crude yield [2]: 63%

From US20240209009 (published 2024)
